Results published in PMC7862700.
This is a selection; strong and weak results do not stand in their true shares. At the low end of the ranking, values are background and their order means little.

The chains behind the UniProt entries cited, without tags or fusion partners. Where a name states a change or a piece, a line headed by the entry shows the natural chain unless it says otherwise.
UniProt O43186: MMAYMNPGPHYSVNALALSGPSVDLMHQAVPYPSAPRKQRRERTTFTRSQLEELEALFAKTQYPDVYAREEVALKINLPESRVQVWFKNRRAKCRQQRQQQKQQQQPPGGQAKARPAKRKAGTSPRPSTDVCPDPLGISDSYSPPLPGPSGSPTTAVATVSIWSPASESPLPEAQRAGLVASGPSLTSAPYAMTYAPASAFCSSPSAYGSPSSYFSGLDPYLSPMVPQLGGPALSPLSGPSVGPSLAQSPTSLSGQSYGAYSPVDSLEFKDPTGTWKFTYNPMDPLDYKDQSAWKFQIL

Assays:
Assay in all cases: DAPPL (digital affinity profiling via proximity ligation, sequencing)
Details in all cases: 10 mM Tris-HCl pH 7.5, 50 mM NaCl, 1 mM DTT, 4% glycerol, room temperature, 30 min; GST-TFs on glutathione beads, 16-mer random dsDNA library, 0.1% …; high values mean tight binding; double strand, one strand shown; scale: fold enrichment (6-mer frequency, TF over GST control)
FEV = biological target: T1, FEV (UniProt Q99581)
T1 sequence: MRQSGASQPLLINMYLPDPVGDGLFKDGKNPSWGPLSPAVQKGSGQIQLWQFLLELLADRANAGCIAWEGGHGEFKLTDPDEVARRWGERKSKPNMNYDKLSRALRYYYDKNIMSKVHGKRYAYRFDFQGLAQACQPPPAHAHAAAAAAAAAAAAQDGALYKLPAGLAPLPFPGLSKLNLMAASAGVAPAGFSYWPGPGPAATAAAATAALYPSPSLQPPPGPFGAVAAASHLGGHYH

CRX = CRX (UniProt O43186)
ELF5 = biological target: T2, ELF5 (UniProt Q9UKW6-2)
T2 sequence: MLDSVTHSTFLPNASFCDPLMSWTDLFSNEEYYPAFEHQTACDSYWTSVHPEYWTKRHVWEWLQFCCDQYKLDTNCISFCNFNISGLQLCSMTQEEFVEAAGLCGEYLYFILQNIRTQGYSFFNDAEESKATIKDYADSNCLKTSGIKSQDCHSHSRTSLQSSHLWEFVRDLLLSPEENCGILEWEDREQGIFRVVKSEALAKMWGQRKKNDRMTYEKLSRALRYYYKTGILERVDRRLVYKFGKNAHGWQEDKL

Sequence	binding signal (FEV)	binding signal (CRX)	binding signal (ELF5)
GGTTGT	0.879	0.629	0.888
CAACCT	1.21	0.938	1.2
ATCTCA	1.16	1.51	1.09
TGTTGG	0.906	0.746	0.945
CTACTG	1.33	1.08	1.32
AGGTTC	0.843	0.769	0.901
GAGCTT	0.929	1.43	0.909
CAGCGC	0.982	0.8	0.955
CGGCCC	1	0.631	0.904
TTAGTC	0.712	1.57	0.748
TCAACT	1.36	1.34	1.24
TCCGTC	1.38	0.978	1.57
TCCGGG	1.36	0.632	2.39
TGGTCA	0.948	0.745	0.963
GCAGCA	0.973	0.72	0.918
GGCCCT	0.955	0.846	0.948
TAAGAC	0.899	1.72	0.872
GCAAAG	0.938	0.894	0.899
GTGCCT	0.969	0.821	1
CGCGAA	0.977	1.05	0.927
CGTACG	0.972	0.772	0.97
TGCACC	1.23	0.815	1.16
CAGAAC	0.888	0.895	0.905
TCGTCA	0.961	0.845	0.969

Sequence	binding signal (FEV)	binding signal (CRX)	binding signal (ELF5)
ACGCGA	0.858	0.881	0.862
CGCAAA	0.972	0.909	0.968
GCAAAC	0.967	0.723	0.997
TGATTG	0.958	0.966	0.929
GACTGC	0.967	0.721	0.93
ATAGCG	0.962	0.865	0.928
GGCTGC	0.929	0.692	0.874
CGTCAT	0.905	0.739	0.958
GCTTGT	1.02	0.988	1.05
CTAGCC	0.996	0.963	0.886
TTTGTT	1.19	1.46	1.27
CGCGTA	0.96	0.867	0.956
ACAGTT	0.8	0.697	0.829
GTGTAA	0.92	0.916	0.884
GGAATA	0.843	1.02	0.98
GGCCTC	1.07	0.889	0.983
CCGCGG	0.937	0.744	0.914
TCCAGT	0.626	0.757	0.646
GTGTTA	0.96	1.11	0.901
TCGTCG	0.885	0.781	0.851
GACCCA	0.875	0.694	0.859
GTTCCC	1.27	0.966	1.48
CGACAG	0.958	0.741	0.917
CGTCCA	0.968	0.788	0.995

Sequence	binding signal (FEV)	binding signal (CRX)	binding signal (ELF5)
GTCACG	0.935	0.702	0.981
GTATGT	0.942	0.683	0.96
TGCGGC	1.02	0.861	0.985
CGCGCG	0.899	0.802	0.914
AGCAGA	0.929	0.877	0.903
TGCAGC	1.08	0.791	0.998
ATAGAC	0.947	0.914	0.957
TAAGTC	0.834	1.79	0.836
GTATGA	0.918	0.777	0.978
AAACTG	1.06	0.987	1.1
TACGAG	0.876	1.05	0.893
TGTAGA	0.863	0.855	0.891
CATTGG	0.945	0.842	0.919
TGGCCG	1.22	0.83	0.957
TTCGGG	0.865	1	0.885
TCGAGT	0.906	0.928	0.868
CAATGC	1.16	0.926	1.13
GGCATA	0.907	0.894	0.878
GTATTG	0.872	0.846	0.928
TCATGA	0.985	1.07	1.05
AGGTCC	0.919	0.665	0.98
CTTTAG	1.18	1.51	1.05
GAGAAA	0.702	0.761	0.678
ATCGCG	0.909	0.937	0.909

Reformatted: results already given.
Sequence,binding signal (FEV),binding signal (CRX),binding signal (ELF5)
GTGTAA,0.92,0.916,0.884
GGAATA,0.843,1.02,0.98
GGCCTC,1.07,0.889,0.983
CCGCGG,0.937,0.744,0.914
TCCAGT,0.626,0.757,0.646
GTGTTA,0.96,1.11,0.901
TCGTCG,0.885,0.781,0.851
GACCCA,0.875,0.694,0.859
GTTCCC,1.27,0.966,1.48
CGACAG,0.958,0.741,0.917
CGTCCA,0.968,0.788,0.995
GTCACG,0.935,0.702,0.981
CGCGCG,0.899,0.802,0.914
AGCAGA,0.929,0.877,0.903
TGCAGC,1.08,0.791,0.998
ATAGAC,0.947,0.914,0.957
TAAGTC,0.834,1.79,0.836
GTATGA,0.918,0.777,0.978
AAACTG,1.06,0.987,1.1
TACGAG,0.876,1.05,0.893
TGTAGA,0.863,0.855,0.891
TGGCCG,1.22,0.83,0.957
TTCGGG,0.865,1,0.885
TCGAGT,0.906,0.928,0.868
CAATGC,1.16,0.926,1.13
GGCATA,0.907,0.894,0.878
GTATTG,0.872,0.846,0.928
TCATGA,0.985,1.07,1.05
AGGTCC,0.919,0.665,0.98
CTTTAG,1.18,1.51,1.05
GAGAAA,0.702,0.761,0.678
ATCGCG,0.909,0.937,0.909

(list continues)

Sequence	binding signal (FEV)	binding signal (CRX)	binding signal (ELF5)
CATTTT	1.19	1.04	1.22
GCGAAC	0.927	0.8	0.842
ACTTGA	0.888	0.937	0.981
GATCGA	0.805	0.861	0.732
GACTTA	0.916	1.93	0.883
CATAGC	0.94	0.856	0.911
GCACGA	1.09	0.868	0.985
CTAGGA	0.812	0.936	0.937
TCGAGG	0.742	0.745	0.802
CATCGT	0.848	0.756	0.82
AGGAAT	0.728	0.882	0.884
CCGTCA	1.19	0.863	1.22
GACTCG	0.835	0.756	0.8
CTTCTT	1.48	1.89	1.65
GTCATT	0.952	0.837	0.97
GAATGT	1.07	1.02	1.08
TTTTCC	1.74	1.44	2.37
GTCAAA	0.908	0.774	0.87
AGAGAT	0.879	1.38	0.899
ATCAAG	0.926	1.19	0.974
GATGGA	0.849	0.942	0.908
TGGCGA	1.02	0.854	0.903
CGAAGG	0.942	0.919	0.872
ACTGGA	1	1.19	0.977

Sequence	binding signal (FEV)	binding signal (CRX)	binding signal (ELF5)
TGATAG	0.942	1.01	0.963
AGGTGT	0.812	0.763	0.731
AACAGA	0.913	0.933	0.991
GTGTAC	0.951	0.627	0.898
ACGCTC	0.986	0.884	0.947
ACTGTC	0.892	0.685	0.955
TGGGTA	0.976	0.945	0.954
TATGTC	0.983	0.953	1.05
GACCCC	0.904	0.663	0.849
CAAACG	0.948	0.753	0.976
CCCAGA	0.853	0.972	0.886
TAGCGA	0.995	1.24	0.968
GGCTCG	0.997	0.873	0.966
AGAACC	0.952	0.957	0.954
CGAAGT	0.852	0.897	0.9
ACGGTT	0.975	0.888	1.05
TTTTAG	1.14	1.48	1.06
ACAAAG	0.954	0.961	0.936
ATAGGT	0.992	0.96	0.98
AAGGCC	0.95	0.936	0.908
GCGACG	0.815	0.656	0.843
CGAGGT	0.846	0.731	0.859
GCGTTA	0.871	1.06	0.877
GACTTG	0.818	0.717	0.883
